Laboratory results reported in PMC2808209.
No constants are given. Whether binding was seen depends on the method and setting. In cells and extracts the contact can be indirect. For some assays here: Binding can be weak; no strength is given. For some assays here: Where a sequence is shown, tags or fusion partners need not be part of it. Values belong to the binder of their own block, whether it stands above or below them.

Columns and labels:
[1] = biological target: GST-syntaxin 13ΔTM; test: pull-down; GST-syntaxins lacking the transmembrane domain immobilized on GSH beads, lysate of COS-7 cells transfected with GFP-GRASP-1(594–837); anti-GFP blot; only the target purified
[2] = biological target: GST-syntaxin 13ΔTM; test: pull-down; immobilized GST-syntaxin 13ΔTM with 35S-labeled GRASP-1 from a coupled in vitro transcription-translation reaction; only the target purified
[3] = biological target: GST-Rab5 (GTPγS charged); test: pull-down; binding assay of 35S-labeled GRASP-1 with GTPγS-charged GST-Rab proteins; only the target purified
[4] = biological target: GST-Rab11 (GTPγS charged); test: as above
[5] = biological target: GST-Rab7 (GTPγS charged); test: as above
[6] = biological target: GST-Rab3 (GTPγS charged); test: as above
[7] = biological target: GST-Rab4; test: as above
[8] = biological target: Flag-Rab4; test: co-IP; COS-7 cells co-expressing FLAG-tagged Rab and myc-GRASP-1; anti-FLAG immunoprecipitates, eluted with FLAG peptide, Western blot

binding [1]: binds
B1: GFP-GRASP-1(594–837) (domain or fragment, UniProt Q9JHZ4-1 594-837)
chain: DGQRILEKKGSAVLKDLKRQLHLERKRADKLQERLQEILTNSKSRTGLEELVLSEMNSPSRTQTGDSSSVSSFSYREILKEKESSAIPARSLSSSPQAQPPRPAELSDEEVAELFQRLAETQQEKWMLEEKVKHLEVSSASMAEDLCRKSAIIETYVMDSRIDVSVAAGHTDRSGLGSVLRDLVKPGDENLREMNKKLQNMLEEQLTKNMHLHKDMEVLSQEIVRLSKECVGSPDPDLEPGEAN

binding [2]: binds
binding [3]: no binding
binding [4]: no binding
binding [5]: binds weakly
binding [6]: no binding
binding [7]: binds
B2: 35S-labeled GRASP-1 (protein, UniProt Q9JHZ4-1 1-837)
chain: MAQALSEEEFQRMQTQLLELRTNNYQLSDELRKNGVELSSLRQKVAYLDKEFSKAQKALSKSKKAQEVEVLLSEKEMLQAKLHSQEEDFRLQNSTLMAEFSKLCSQLEQLELENRQLKEGVPGAAGPHVDGELLRLQAENTALQKNMAALQERYGKEAVRPSAVSEGQGDPPGDVLPISLSPMPLAEVELKWEMEREEKKLLWEQLQGLESSKQAETSRLQEELAKLSEKLKKKQESFCRLQTEKETLFNDSRNKIEELQQRKEADLKAQLARTQKLQQELEAANQSLAELRDQRQGERLEHAAALRALQDQVSSQSADAQEQVEGLLAENNALRTSLAALEQIQTAKTQELNMLREQNTELAAELKHRQADYEELMGQKDDLNSQLQESLRANSRLLEQLQEMGQEKEQLIQDLQEARKSAEKRKVMLDELAMETLQEKSQHKEELGAVRLRHEKEMLGVRARYERELRELHEDKKRQEEELRGQIREEKARTRELENLQHTVEELQAQVHSMDGAKGWFERRLKEAEESLLQQEQEQEETLKQCREQHAAELKGKEEELQNVRDQLQQAQEERDGHVKTISNLKQEVKDTVDGQRILEKKGSAVLKDLKRQLHLERKRADKLQERLQEILTNSKSRTGLEELVLSEMNSPSRTQTGDSSSVSSFSYREILKEKESSAIPARSLSSSPQAQPPRPAELSDEEVAELFQRLAETQQEKWMLEEKVKHLEVSSASMAEDLCRKSAIIETYVMDSRIDVSVAAGHTDRSGLGSVLRDLVKPGDENLREMNKKLQNMLEEQLTKNMHLHKDMEVLSQEIVRLSKECVGSPDPDLEPGEAN
modifications: 35S-labeled

binding [8]: binds
B3: myc-GRASP-1, full length (1-837) (protein, UniProt Q9JHZ4-1 1-837)
chain: B2 chain
